# Reference: the supplement of paper PMC10849652
# By UniProt entry, the sequences of proteins in these tests, tags left out. Where a name states a change or a piece, a line headed by the entry shows the natural chain unless it says otherwise.
# UniProt Q8N2A8: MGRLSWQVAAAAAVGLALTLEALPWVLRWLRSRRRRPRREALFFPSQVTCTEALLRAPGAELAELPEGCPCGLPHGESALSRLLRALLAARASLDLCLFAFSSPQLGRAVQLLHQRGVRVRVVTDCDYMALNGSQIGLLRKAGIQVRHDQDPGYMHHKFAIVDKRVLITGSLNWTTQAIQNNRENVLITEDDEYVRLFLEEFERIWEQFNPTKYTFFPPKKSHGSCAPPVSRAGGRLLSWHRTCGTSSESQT
# UniProt P08567: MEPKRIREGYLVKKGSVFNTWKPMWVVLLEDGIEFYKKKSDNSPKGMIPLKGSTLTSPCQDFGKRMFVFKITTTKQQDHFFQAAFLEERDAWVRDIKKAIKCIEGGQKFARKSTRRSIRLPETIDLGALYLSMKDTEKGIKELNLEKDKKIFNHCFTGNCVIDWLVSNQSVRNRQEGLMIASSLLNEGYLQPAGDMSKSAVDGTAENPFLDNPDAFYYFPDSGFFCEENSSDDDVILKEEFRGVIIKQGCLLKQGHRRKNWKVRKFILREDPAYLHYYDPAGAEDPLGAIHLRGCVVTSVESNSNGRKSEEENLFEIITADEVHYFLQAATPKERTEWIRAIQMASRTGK
# UniProt Q8N2W9: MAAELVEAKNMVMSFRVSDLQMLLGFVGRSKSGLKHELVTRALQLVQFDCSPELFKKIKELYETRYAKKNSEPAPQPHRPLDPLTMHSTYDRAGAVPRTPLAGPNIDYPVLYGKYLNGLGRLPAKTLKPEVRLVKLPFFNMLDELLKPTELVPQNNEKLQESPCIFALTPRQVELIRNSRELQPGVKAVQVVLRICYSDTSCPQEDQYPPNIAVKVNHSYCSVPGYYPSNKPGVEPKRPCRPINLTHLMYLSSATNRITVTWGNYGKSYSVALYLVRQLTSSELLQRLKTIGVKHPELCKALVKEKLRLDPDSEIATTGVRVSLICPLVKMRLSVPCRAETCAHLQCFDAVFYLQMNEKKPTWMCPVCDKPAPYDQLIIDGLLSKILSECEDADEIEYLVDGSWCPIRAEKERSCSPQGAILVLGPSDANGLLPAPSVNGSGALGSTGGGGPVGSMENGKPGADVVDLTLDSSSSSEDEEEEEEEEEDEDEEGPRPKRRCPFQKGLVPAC
# UniProt P0C869: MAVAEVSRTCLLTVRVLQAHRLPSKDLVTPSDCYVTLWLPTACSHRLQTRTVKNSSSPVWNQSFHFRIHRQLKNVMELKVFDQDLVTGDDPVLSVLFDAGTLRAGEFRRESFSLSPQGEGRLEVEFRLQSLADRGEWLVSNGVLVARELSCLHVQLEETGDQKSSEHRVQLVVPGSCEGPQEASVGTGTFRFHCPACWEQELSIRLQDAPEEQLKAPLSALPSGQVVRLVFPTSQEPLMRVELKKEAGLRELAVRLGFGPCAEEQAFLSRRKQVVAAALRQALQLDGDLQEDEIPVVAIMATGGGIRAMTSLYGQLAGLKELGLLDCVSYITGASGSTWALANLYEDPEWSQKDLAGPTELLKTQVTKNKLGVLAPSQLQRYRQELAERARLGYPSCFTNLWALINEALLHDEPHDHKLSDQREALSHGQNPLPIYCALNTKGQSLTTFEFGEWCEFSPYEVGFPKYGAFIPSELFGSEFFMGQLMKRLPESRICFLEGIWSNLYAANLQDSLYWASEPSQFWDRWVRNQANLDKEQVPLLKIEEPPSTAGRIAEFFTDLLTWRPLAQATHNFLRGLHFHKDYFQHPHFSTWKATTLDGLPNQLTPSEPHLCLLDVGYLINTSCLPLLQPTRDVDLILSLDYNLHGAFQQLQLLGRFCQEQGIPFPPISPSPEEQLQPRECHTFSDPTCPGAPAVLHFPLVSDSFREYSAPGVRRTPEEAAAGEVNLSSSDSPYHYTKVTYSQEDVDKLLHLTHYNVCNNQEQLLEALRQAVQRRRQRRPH
# UniProt P16118: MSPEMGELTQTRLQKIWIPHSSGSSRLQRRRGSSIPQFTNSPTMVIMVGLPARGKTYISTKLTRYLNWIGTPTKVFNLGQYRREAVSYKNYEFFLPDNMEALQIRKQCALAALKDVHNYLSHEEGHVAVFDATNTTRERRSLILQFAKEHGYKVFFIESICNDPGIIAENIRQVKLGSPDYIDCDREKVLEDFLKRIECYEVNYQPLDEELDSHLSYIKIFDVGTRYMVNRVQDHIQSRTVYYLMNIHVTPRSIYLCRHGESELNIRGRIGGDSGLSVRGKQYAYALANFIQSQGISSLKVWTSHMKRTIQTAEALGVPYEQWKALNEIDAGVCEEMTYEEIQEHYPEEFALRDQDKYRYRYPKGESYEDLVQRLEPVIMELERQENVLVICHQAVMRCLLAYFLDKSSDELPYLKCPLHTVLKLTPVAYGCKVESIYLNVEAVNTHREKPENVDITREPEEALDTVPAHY
# UniProt Q96BK5: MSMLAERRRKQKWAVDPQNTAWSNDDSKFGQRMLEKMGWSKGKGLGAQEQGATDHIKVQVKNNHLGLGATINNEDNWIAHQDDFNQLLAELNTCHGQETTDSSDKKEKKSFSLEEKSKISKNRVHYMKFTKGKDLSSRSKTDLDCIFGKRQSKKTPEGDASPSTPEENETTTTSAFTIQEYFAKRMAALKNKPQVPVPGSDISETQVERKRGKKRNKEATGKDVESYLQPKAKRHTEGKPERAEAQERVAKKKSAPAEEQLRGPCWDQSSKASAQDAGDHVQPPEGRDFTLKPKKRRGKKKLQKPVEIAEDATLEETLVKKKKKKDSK
# UniProt Q8IUZ5: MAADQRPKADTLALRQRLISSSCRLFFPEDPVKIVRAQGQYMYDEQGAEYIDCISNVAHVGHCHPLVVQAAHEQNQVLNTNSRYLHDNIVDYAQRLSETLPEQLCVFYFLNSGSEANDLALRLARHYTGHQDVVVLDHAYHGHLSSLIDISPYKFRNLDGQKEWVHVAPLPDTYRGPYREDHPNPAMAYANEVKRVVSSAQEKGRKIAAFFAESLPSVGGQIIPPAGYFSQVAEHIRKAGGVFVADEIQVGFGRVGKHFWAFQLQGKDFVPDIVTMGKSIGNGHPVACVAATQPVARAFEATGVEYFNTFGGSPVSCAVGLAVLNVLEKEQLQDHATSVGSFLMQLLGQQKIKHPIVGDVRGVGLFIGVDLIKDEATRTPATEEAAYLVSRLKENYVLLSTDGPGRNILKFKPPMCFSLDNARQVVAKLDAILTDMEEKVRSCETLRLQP
# UniProt Q8N4B1: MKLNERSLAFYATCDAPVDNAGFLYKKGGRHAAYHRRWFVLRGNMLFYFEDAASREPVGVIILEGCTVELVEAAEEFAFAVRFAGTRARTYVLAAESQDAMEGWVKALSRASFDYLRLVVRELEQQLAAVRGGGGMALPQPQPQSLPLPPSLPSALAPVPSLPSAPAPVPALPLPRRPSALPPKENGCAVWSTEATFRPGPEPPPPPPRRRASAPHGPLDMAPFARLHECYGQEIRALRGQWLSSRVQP
# UniProt Q7Z412: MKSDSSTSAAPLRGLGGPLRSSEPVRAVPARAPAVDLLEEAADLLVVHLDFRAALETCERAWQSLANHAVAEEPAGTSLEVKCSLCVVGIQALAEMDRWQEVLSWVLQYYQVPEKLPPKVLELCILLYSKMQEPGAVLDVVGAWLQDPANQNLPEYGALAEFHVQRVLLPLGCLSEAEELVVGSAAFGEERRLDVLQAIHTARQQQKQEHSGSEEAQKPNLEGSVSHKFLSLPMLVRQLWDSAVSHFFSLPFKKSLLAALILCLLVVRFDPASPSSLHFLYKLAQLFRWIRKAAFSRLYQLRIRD
# UniProt Q8TEQ8: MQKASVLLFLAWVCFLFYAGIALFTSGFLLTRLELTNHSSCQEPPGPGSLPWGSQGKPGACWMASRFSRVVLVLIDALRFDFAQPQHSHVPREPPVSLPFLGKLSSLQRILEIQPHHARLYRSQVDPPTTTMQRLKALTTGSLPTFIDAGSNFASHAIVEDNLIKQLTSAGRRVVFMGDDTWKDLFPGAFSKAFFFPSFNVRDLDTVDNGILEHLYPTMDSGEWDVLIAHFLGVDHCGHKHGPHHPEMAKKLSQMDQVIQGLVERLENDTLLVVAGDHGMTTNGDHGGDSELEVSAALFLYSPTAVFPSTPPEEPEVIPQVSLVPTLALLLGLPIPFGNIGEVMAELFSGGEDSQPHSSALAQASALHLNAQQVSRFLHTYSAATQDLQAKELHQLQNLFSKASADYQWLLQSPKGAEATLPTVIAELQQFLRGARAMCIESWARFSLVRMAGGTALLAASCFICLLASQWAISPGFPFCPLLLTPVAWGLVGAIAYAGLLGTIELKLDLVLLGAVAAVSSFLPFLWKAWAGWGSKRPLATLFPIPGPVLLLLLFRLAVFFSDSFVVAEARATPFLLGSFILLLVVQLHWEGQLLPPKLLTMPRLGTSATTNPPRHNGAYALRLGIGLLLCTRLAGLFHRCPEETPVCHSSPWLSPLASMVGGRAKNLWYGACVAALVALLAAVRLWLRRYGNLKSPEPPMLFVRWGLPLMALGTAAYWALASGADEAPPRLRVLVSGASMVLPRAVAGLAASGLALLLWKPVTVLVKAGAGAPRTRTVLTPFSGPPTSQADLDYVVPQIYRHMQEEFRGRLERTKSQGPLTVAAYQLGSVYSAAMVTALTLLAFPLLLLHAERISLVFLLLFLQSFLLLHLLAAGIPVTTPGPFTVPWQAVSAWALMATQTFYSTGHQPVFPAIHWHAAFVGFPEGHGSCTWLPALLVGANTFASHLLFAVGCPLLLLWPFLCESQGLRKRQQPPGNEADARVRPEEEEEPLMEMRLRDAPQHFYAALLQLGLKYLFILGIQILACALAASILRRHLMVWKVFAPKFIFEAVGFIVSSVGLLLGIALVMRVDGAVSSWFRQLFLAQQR
# UniProt O00443: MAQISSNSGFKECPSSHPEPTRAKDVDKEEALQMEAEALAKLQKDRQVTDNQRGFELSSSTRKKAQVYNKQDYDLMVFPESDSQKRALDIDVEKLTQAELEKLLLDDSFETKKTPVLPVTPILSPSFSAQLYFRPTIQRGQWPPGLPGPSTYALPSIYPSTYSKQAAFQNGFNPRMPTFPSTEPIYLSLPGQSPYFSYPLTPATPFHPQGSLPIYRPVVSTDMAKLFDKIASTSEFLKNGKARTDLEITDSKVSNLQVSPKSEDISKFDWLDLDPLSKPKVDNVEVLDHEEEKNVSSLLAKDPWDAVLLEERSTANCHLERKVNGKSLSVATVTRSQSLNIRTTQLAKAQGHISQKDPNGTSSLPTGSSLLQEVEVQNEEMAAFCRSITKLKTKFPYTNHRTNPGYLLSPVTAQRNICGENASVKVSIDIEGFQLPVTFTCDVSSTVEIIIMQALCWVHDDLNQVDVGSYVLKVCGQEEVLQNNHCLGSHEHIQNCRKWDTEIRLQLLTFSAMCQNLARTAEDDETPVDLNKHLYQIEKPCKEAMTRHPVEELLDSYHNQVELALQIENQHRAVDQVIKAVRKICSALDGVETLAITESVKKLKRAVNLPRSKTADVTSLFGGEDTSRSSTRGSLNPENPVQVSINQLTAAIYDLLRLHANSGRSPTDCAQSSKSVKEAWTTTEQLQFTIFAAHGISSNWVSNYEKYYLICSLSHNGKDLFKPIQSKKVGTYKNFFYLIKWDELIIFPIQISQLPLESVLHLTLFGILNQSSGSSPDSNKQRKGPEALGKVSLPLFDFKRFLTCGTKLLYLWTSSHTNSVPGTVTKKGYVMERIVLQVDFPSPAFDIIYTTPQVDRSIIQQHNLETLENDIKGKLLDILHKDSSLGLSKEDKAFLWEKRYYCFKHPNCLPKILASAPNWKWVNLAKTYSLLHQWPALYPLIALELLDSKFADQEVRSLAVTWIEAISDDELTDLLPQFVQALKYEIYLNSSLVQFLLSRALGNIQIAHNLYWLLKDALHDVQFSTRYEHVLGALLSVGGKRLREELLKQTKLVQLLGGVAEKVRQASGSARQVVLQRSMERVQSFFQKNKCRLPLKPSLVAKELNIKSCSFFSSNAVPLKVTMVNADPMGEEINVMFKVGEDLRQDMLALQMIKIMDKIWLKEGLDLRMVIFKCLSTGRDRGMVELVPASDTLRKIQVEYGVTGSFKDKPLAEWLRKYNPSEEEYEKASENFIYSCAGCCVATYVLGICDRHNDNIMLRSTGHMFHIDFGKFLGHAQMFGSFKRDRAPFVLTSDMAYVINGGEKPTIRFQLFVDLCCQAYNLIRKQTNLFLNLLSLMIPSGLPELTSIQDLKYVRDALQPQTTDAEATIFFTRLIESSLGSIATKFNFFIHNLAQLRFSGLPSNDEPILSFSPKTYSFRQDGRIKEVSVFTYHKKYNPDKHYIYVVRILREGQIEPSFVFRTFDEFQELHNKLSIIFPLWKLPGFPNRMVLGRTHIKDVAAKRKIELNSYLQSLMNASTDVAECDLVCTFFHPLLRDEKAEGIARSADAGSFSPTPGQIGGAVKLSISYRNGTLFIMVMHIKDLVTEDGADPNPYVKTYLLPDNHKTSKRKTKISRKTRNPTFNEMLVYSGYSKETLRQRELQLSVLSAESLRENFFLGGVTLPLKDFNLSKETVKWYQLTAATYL
# The other results are listed elsewhere or left out.
# Compound: CC[C@@H]1C(=O)N(C)c2cnc(Nc3ccc(C(=O)N[C@H]4CC[C@H](N5CCN(CC6CC6)CC5)CC4)cc3OC)nc2N1C(C)C [volasertib]
# Assay: log2 fold change, soluble protein after heating vs DMSO (PISA); higher = thermal stabilisation; K562 cells, 10 uM, 30 min; active = over 0.2 and 3.5 SD of the protein, either way, in both replicates (recomputed)
# In short: (§1)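 Quantification of soluble protein used TMTpro 16plex LC-MS/MS, with channel sums equalised. Samples were the supernatant after 21,000xg for 90 min of pooled aliquots from K562 cells (2×10^6 cells/mL) treated with 10 μM compound for 30 min, heated for 3 min over 48°C-58°C, and extracted in PBS with 0.5% NP-40 at 4°C. Values, from duplicates, describe thermal stability against control samples on a log2 fold-change scale.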
row,Target,log2 fold change
1,PLD6 (UniProt Q8N2A8),inactive: 0.075
2,PLEK (UniProt P08567),inactive: -0.03
3,PIAS4 (UniProt Q8N2W9),inactive: -0.406
4,PLA2G4B isoform 6 (UniProt P0C869),inactive: -0.437
5,PFKFB1 (UniProt P16118),inactive: -0.023
6,PKLR (UniProt F8W6W2),inactive: 0.026
7,PGD (UniProt K7EM49),inactive: 0.108
8,PHRF1 (UniProt Q9P1Y6),inactive: 0.373
9,PIAS1 isoform 2 (UniProt O75925),inactive: -0.54
10,PINX1 (UniProt Q96BK5),inactive: 0.37
11,PLEKHB2 isoform 2 (UniProt Q96CS7),inactive: 0.079
12,PKN2 (UniProt Q16513),inactive: -0.135
13,PHYKPL (UniProt Q8IUZ5),inactive: 0.017
14,PHETA1 isoform 4 (UniProt Q8N4B1),inactive: 0.144
15,PFKM (UniProt F8VTQ3),inactive: -0.292
16,PEX26 (UniProt Q7Z412),inactive: -0.087

# Compound: CC[C@H](C)N1C=C(C2=C(C=C(C=C21)C3=CN=C(C=C3)N4CCNCC4)C(=O)NCC5=C(C=C(NC5=O)C)C)C
# Assay: as above
# In short: as §1
row,Target,log2 fold change
1,PLA2G4B isoform 6 (UniProt P0C869),inactive: 0.039
2,PFKFB1 (UniProt P16118),inactive: 0.044
3,PIK3CA (UniProt P42336),inactive: 0.151
4,PINX1 (UniProt Q96BK5),inactive: 0.05
5,PKN2 (UniProt Q16513),inactive: 0.159
6,PICK1 (UniProt Q9NRD5),inactive: 0
7,PHYKPL (UniProt Q8IUZ5),inactive: 0.077
8,PIGO (UniProt Q8TEQ8),inactive: -0.051
9,PIK3C2A (UniProt O00443),inactive: 0.009
10,PEX26 (UniProt Q7Z412),inactive: 0.058

# Compound: CC[C@H](C)[C@@H](C(=O)N[C@@H]([C@@H](C)O)C(=O)N[C@@H](CC(C)C)C(=O)[C@]1(CO1)C)NC(=O)[C@H]([C@@H](C)CC)N(C)C(=O)C [epoxomicin]
# Assay: as above
# In short: as §1
row,Target,log2 fold change
1,PLD6 (UniProt Q8N2A8),inactive: -0.023
2,PIP5K1C isoform 3 (UniProt O60331),inactive: -0.046
3,PIAS4 (UniProt Q8N2W9),inactive: 0.11
4,PFKFB1 (UniProt P16118),inactive: 0.056
5,PEX5 isoform 4 (UniProt P50542),inactive: 0.2
6,PGD (UniProt K7EM49),inactive: -0.197
7,PIK3CA (UniProt P42336),inactive: -0.053
8,PINX1 (UniProt Q96BK5),inactive: -0.167
9,PKN2 (UniProt Q16513),inactive: -0.027
10,PICK1 (UniProt Q9NRD5),inactive: -0.09
11,PHYKPL (UniProt Q8IUZ5),inactive: -0.155
12,PHLPP1 (UniProt O60346),inactive: 0.129
13,PIGO (UniProt Q8TEQ8),inactive: 0
14,PIK3C2A (UniProt O00443),inactive: -0.169
15,PEX26 (UniProt Q7Z412),inactive: 0.103

# Compound: CCn1c(C(=O)N(C2CC2)C2CC2)cc2c3c(ncn3C)c(Nc3cc(C)n(C)n3)nc21
# Assay: as above
# In short: as §1
row,Target,log2 fold change
1,PLEK (UniProt P08567),inactive: 0.079
2,PIP5K1C isoform 3 (UniProt O60331),inactive: -0.183
3,PGM1 isoform 2 (UniProt P36871),inactive: 0.383
4,PIK3CA (UniProt P42336),inactive: -0.019
5,PIBF1 (UniProt Q8WXW3),inactive: -0.051
6,PHOSPHO2 (UniProt Q8TCD6),inactive: 0.017
7,PINX1 (UniProt Q96BK5),inactive: 0.032
8,PKNOX1 (UniProt P55347),inactive: -0.137
9,PHYKPL (UniProt Q8IUZ5),inactive: -0.035
10,PIGO (UniProt Q8TEQ8),inactive: -0.054
11,PIK3C2A (UniProt O00443),inactive: -0.105
12,PEX26 (UniProt Q7Z412),inactive: -0.086

# Compound: CCn1cc(-c2ccnc3[nH]c(-c4cccc(CN(C)C)c4)cc23)c(-c2ccc(NC(=O)N(C)C)cc2)n1
# Assay: as above
# In short: as §1
row,Target,log2 fold change
1,PIP5K1C isoform 3 (UniProt O60331),inactive: -0.102
2,PIAS4 (UniProt Q8N2W9),inactive: -0.064
3,PLA2G4B isoform 6 (UniProt P0C869),inactive: 0.049
4,PFKFB1 (UniProt P16118),inactive: 0.269
5,PIM1 isoform 2 (UniProt P11309),inactive: -0.068
6,PHF14 (UniProt O94880),inactive: 0
7,PGD (UniProt K7EM49),inactive: -0.336
8,PIMREG (UniProt Q9BSJ6),inactive: -0.116
9,PINX1 (UniProt Q96BK5),inactive: 0.358
10,PKN2 (UniProt Q16513),inactive: -0.046
11,PHYKPL (UniProt Q8IUZ5),inactive: 0.067
12,PHETA1 isoform 4 (UniProt Q8N4B1),inactive: 0.013
13,PFKM (UniProt F8VTQ3),inactive: 0.123
14,PEX26 (UniProt Q7Z412),inactive: -0.034

# Compound: CN(C)CC(=O)Nc1ccc2[nH]c(=O)c3ccccc3c2c1
# Assay: as above
# In short: as §1
row,Target,log2 fold change
1,PLD6 (UniProt Q8N2A8),inactive: 0.051
2,PLEK (UniProt P08567),inactive: -0.297
3,PLA2G4B isoform 6 (UniProt P0C869),inactive: 0.023
4,PEX5 isoform 4 (UniProt P50542),inactive: -0.017
5,PHF14 (UniProt O94880),inactive: 0.088
6,PKHD1 (UniProt P08F94),inactive: -0.062
7,PKLR (UniProt F8W6W2),inactive: 0.291
8,PGD (UniProt K7EM49),inactive: -0.124
9,PHOSPHO2 (UniProt Q8TCD6),inactive: -0.022
10,PINX1 (UniProt Q96BK5),inactive: -0.159
11,PKN2 (UniProt Q16513),inactive: 0.009
12,PIGO (UniProt Q8TEQ8),inactive: 0.017
13,PEX26 (UniProt Q7Z412),inactive: -0.136
